In publication PMC11564117:
These are yes or no findings as the source states them, for the method shown. Where a sequence is shown, tags or fusion partners need not be part of it.

Target: OPTN-GST (human), Q96CV9
Experiment: microscopy-based bead assay; Fig. 6e, Extended Data Fig. 10: GST, OPTN-GST or GST–NAP1 on glutathione beads; EGFP–TBK1 WT, KD or E696K 250 nM; 25 mM Tris-HCl pH 7.4, 150 mM NaCl, 1 mM DTT; 30 min; Extended Data Fig. 10 with and without ATP/MgCl2 (interaction weakened with ATP/MgCl2); confocal imaging; both purified
Conditions: remark: other sources report otherwise

binding: no binding (tested: 250 nM)
B1: EGFP–TBK1 E696K mutant, Q9UHD2 1-729 (enzyme)
chain: MQSTSNHLWLLSDILGQGATANVFRGRHKKTGDLFAIKVFNNISFLRPVDVQMREFEVLKKLNHKNIVKLFAIEEETTTRHKVLIMEFCPCGSLYTVLEEPSNAYGLPESEFLIVLRDVVGGMNHLRENGIVHRDIKPGNIMRVIGEDGQSVYKLTDFGAARELEDDEQFVSLYGTEEYLHPDMYERAVLRKDHQKKYGATVDLWSIGVTFYHAATGSLPFRPFEGPRRNKEVMYKIITGKPSGAISGVQKAENGPIDWSGDMPVSCSLSRGLQVLLTPVLANILEADQEKCWGFDQFFAETSDILHRMVIHVFSLQQMTAHKIYIHSYNTATIFHELVYKQTKIISSNQELIYEGRRLVLEPGRLAQHFPKTTEENPIFVVSREPLNTIGLIYEKISLPKVHPRYDLDGDASMAKAITGVVCYACRIASTLLLYQELMRKGIRWLIELIKDDYNETVHKKTEVVITLDFCIRNIEKTVKVYEKLMKINLEAAELGEISDIHTKLLRLSSSQGTIETSLQDIDSRLSPGGSLADAWAHQEGTHPKDRNVEKLQVLLNCMTEIYYQFKKDKAERRLAYNEEQIHKFDKQKLYYHATKAMTHFTDECVKKYEAFLNKSEEWIRKMLHLRKQLLSLTNQCFDIEEEVSKYQEYTNELQETLPQKMFTASSGIKHTMTPIYPSSNTLVEMTLGMKKLKEKMEGVVKELAENNHILERFGSLTMDGGLRNVDCL
